# Reference: PMC10365314, “Noncanonical contribution of microglial transcription factor NR4A1 to post-stroke recovery through TNF mRNA destabilization”
# The chains behind the UniProt entries cited, without tags or fusion partners.
# UniProt P12813: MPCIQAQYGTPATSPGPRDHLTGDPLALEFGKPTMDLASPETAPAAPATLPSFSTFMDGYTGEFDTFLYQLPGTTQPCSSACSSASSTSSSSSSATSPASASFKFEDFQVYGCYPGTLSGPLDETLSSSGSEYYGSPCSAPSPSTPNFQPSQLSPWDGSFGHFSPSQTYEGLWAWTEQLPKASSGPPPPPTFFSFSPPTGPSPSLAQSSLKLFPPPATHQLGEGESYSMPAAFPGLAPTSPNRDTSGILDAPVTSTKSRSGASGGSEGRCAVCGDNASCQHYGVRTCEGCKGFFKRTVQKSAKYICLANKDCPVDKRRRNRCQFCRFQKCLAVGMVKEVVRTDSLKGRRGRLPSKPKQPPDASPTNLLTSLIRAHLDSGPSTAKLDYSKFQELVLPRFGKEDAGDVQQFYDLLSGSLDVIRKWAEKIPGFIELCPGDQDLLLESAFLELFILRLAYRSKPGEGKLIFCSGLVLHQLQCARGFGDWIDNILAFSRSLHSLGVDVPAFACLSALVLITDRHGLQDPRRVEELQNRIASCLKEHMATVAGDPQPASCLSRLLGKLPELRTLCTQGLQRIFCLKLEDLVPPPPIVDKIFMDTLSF
# No constants are given. Whether binding was seen depends on the method and setting. Binding seen in cells or lysates may run through a third protein. Some entries that bind do so weakly or less than the wild type.
# B1: DCP1A (protein, UniProt Q91YD3 1-602)
# chain: MALSCSTVRPRRRGSALRSKMELLSRAEQEMSLAALKQHDPYITSIADLTGQVALYTFCPKANQWEKTDIEGTLFVYRRSASPYHGFTIVNRLNMHNLVEPVNKDLEFQLHEPFLLYRNASLSIYSIWFYDKNDCHRIAKLMADVVEEETRRSQQAARDKQSPSQANGCSDQRPIDILEMLSRAKDEYERNQMGGSNISSPGLQPSTQLSNLGSTETLEETPSGSQDKSAPSGHKHLTVEELFGTSLPKEQPTAMGLESEDTDKLLGDASQKEPSSFLPFPFEQSGGAPQSENLGIHSAAHHTVQPEVSTPVLITPASIAQSGDKHPPSYTLPLSPVLSPTLPAEAPTTQVPHLPRNSTMIQAVKTTPRQKSPLLNQPVPELSHSSLVASQSPFRAPVSLANPAGTALPSVDLLQKLRLTPQHDQIQAQPLGKGTMAPSFSSAAGQLATPESFIEPSSKTAAARAAVSASLSNMVLAPTLQSMQQNQDPEVFSQPKVLPSAIPIAGSPLVPATTTAVSSVLLSPSVFQQTVPRAADLERKASSPSPLTVGTAESQRKPSIILSKSQLQDTLIHLIKNDSSFLSTLHAVYLQVLTKNKDNHNL
# What was measured:
# [1] = target: FLAG-NR4A1 (UniProt P12813); experiment: co-IP; lysates of BV2 cells expressing FLAG-NR4A1, with or without ATP+LPS; anti-FLAG antibody or rabbit IgG, Protein G agarose; lysis buffer 25 mM Tris-HCl pH 7.4, 150 mM NaCl, 1 mM EDTA, 1% NP40, 5% glycerol; immunoblot for DCP1A
# [2] = target: NR4A1 (mouse (endogenous in primary microglia)) (UniProt P12813); experiment: proximity ligation; Duolink in situ PLA on fixed, permeabilised primary microglia, unstimulated or ATP+LPS-treated; anti-NR4A1 and anti-DCP1A primary antibodies
binder,measurement,setting,value
B1,binding,[1],binds
same,binding,[2],binds
